Assay results as given in article PMC3146467.
Results are given in words; binding and its absence hold for the method and conditions named. Binding seen in cells or lysates may run through a third protein. Some results given as binding are weak or reduced against the parent protein; the word gives no strength.

By UniProt entry, the sequences of proteins in these tests, tags left out. Where a name states a change or a piece, a line headed by the entry shows the natural chain unless it says otherwise. Chains listed by the source or under a name are the forms on record and can include a tag or linker.
UniProt P12841: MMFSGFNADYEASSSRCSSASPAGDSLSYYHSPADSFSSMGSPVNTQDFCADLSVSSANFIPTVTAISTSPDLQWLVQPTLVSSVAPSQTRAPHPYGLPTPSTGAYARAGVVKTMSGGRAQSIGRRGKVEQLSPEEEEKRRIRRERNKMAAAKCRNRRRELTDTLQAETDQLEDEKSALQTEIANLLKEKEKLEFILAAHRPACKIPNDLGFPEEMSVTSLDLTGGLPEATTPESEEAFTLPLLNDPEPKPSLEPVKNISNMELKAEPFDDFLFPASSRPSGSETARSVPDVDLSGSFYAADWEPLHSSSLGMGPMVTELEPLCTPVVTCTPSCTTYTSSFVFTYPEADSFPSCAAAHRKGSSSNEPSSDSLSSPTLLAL
UniProt P17325: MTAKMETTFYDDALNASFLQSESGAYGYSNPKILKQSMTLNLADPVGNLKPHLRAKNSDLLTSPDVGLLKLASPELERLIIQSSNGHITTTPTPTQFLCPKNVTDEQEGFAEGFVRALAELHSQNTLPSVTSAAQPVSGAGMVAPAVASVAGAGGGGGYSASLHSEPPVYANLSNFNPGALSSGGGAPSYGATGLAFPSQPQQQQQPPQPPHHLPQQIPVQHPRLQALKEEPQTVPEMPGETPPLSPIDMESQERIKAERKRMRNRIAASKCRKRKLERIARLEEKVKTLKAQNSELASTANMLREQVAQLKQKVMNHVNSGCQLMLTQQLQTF
UniProt P84022: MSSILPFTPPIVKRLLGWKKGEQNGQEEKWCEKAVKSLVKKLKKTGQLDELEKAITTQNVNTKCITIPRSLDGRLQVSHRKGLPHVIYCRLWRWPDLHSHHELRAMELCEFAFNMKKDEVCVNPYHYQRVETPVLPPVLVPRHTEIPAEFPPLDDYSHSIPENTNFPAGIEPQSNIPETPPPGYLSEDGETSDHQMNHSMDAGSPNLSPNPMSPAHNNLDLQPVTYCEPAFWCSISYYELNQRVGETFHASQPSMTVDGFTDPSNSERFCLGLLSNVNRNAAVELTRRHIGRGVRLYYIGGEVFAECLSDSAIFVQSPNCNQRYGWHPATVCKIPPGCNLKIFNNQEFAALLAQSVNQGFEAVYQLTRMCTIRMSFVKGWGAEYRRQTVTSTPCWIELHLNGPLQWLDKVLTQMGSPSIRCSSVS
Smad3 (K40, 41, 43, 44A) (P84022, form named): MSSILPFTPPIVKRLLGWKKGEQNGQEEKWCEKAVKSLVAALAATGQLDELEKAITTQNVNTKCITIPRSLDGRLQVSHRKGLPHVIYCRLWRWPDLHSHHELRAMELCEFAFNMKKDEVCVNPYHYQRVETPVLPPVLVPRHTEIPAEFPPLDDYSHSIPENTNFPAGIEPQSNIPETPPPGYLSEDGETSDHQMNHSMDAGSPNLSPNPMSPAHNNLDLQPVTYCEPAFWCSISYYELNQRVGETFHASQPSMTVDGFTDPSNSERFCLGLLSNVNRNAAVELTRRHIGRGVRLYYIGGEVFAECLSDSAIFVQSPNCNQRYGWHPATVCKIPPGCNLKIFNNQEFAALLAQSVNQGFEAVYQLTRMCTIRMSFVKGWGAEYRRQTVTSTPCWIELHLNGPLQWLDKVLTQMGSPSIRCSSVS

Experiments:
rat c-Fos (rat) = rat c-Fos (rat) (UniProt P12841); experiment: co-IP; whole Xenopus embryos injected with AP-1 (flag-tagged rat c-jun and rat c-fos mRNAs) alone or together with Smad3 mRNA, stage 10.5; lysis buffer 50 mM Tris pH 7.4, 150 mM NaCl, 1% NP-40, 0.25% sodium deoxycholate, 0.1% SDS; IP with anti-Flag, anti-Myc or anti-c-Fos, Protein A/G agarose, western …
[1] = target: flag-tagged rat c-Jun (rat) (UniProt P17325); experiment: as above
[2] = target: c-Jun (of the immunoprecipitation with wild and mutant Smad3, Figure 7B) (not stated (Xenopus or rat cDNA cloned)) (UniProt P17325); experiment: co-IP; Xenopus embryo lysate; c-Jun with wild Smad3 or Smad3 mutants; immunoprecipitation and western blot

Substance	binding (rat c-Fos (rat))	binding [1]	binding [2]
6myc-Smad3 (from UniProt P84022 1-425)	binds	binds	binds
Smad3 (K40, 41, 43, 44A) (from UniProt P84022 1-425)	–	–	no binding
